The campaign covered roughly 310,000 compounds. About 17,000 (5.5%) were called active. The shares of active, inactive and inconclusive entries below differ from those in the screen. Calls come from the whole dose curve; as a rule, active = well fitted inhibition curve with a large enough effect; inconclusive = small, poorly fitted or top-dose-only effect, or effect the other way; inactive = no such curve, though single readings can be large or run the other way. Where the call is inconclusive, the potency comes from a doubtful curve fit.
Biological target: Nuclear receptor ROR-gamma (Mus musculus) (UniProt P51450)
Assay: qHTS for inhibitors of ROR gamma transcriptional activity; note: nearly all actives have a fitted effect of over 60% in size
Conditions: Drosophila S2 Gal4-RORgamma UAS-luciferase reporter, 20 h; activity change, negative = inhibition: at 53.6 µM (top of the series)
Outline: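 Luciferase reporter read in Schneider cells carrying Gal4-RORγ (mouse) and UAS-Photinus luciferase; cells given compound 1 h before 700 uM copper sulfate induction, then incubated 20 h at ambient temperature.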
% is set by controls: 0 for no effect and ±100 for the full control effect; potency is the fitted concentration of half-maximal effect.

Sequences of proteins named here, by UniProt entry; tags and fusion partners are left off. A change or cut given only in a name is not applied to a line headed by its entry.
UniProt P51450: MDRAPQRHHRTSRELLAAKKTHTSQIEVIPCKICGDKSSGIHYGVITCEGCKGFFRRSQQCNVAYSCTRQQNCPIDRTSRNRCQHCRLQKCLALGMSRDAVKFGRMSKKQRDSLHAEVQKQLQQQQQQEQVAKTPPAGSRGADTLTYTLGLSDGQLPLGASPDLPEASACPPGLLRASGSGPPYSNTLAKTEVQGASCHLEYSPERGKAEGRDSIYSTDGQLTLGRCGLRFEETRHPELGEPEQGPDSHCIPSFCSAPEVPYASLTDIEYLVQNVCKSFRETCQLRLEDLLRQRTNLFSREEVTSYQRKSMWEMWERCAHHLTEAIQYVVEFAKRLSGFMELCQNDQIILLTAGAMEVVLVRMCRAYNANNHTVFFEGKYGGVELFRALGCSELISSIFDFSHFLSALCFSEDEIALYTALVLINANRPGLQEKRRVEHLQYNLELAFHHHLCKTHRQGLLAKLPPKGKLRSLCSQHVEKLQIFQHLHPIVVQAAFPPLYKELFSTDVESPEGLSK

SMILES	Potency	activity change, negative = inhibition
CCOC(=O)C1=C(c2cccc(Oc3ccccc3)c2)NC(=S)NC1C (stereo unspecified)	inconclusive: 35.5 µM [inhibitor, single point]	
CC/C(=N\NC(=S)NC(C)C)c1ccc(OC)c(OC)c1	active: 4.47 µM	
COc1cccc(-c2nnc(NC(=O)c3ccc(S(=O)(=O)N4CC(C)OC(C)C4)cc3)o2)c1 (stereo unspecified)	active: 0.562 µM	
COc1ccccc1CN1C(=NC(=O)CCC2CCCC2)SC2CS(=O)(=O)CC21 (stereo unspecified)	inconclusive: 12.6 µM [inhibitor, single point]	
COc1cccc(NC(=O)c2ccco2)c1		inactive: 5.61%
CCCCN1C2=NCCCN2c2ccccc21		inactive: -5.32%
Cc1ccc(NC(=O)CCCCCCCCCCC2COCCO2)c(C)c1 (stereo unspecified)		inactive: 12.6%
CCOC(=O)NC(=O)/C(C#N)=C/c1ccc(N(C)C)cc1	inconclusive: 6.31 µM [activator, partial curve]	
Cc1cc(C)c(C#N)c(SCC(=O)Nc2ccc(S(=O)(=O)Nc3ncccn3)cc2)n1	active: 8.91 µM	
CCc1[nH]nc(C(=O)N2CCCC(N3CCN(c4ccccc4C)CC3)C2)c1C (stereo unspecified)	inconclusive: 14.1 µM [activator, partial curve]	
COc1ccc(NC(=O)C2CC(=O)N/C(=N/NC(=O)c3ccc(Cl)cc3)S2)cc1 (stereo unspecified)	active: 1.26 µM	
CN(C)CCCc1cc(C(=O)Nc2ccc(-c3ccncc3)cc2)ccc1O		inactive: -8.54%
CCN(Cc1ccccc1)c1ccc(/C=N/NS(=O)(=O)c2ccc(C)c([N+](=O)[O-])c2)cc1	inconclusive: 14.1 µM [activator, single point]	
O=C(Nc1cnccn1)c1cccc(C(F)(F)F)c1	inconclusive: 17.8 µM [activator, partial curve]	
C=CCN(c1ccccc1)S(=O)(=O)c1ccc2c(c1)oc(=O)n2C	inconclusive: 5.01 µM [inhibitor, single point]	
Cc1cccc(N(C)C(=O)c2cnn(-c3ccccc3)c2C)c1	inconclusive: 7.94 µM [activator, partial curve, poor fit]	
C1COC1		inactive: -26.4%
O=C(NCc1cccs1)C1CCN(S(=O)(=O)c2ccc(Cl)cc2)CC1	inconclusive: 22.4 µM [activator, single point]	
COc1cc(/C=C2\SC(=O)N(c3ccccc3Cl)C2=O)cc([N+](=O)[O-])c1O	inconclusive: 7.08 µM [activator, partial curve]	
Cc1cc(NC(=O)CSc2nccn2C)n(-c2ccccc2)n1		inactive: 1.63%
Cc1cc(OCC(=O)NNC(=S)NCC2CCCO2)cc(C)c1Cl (stereo unspecified)	active: 3.16 µM	
CCN(CC)CC(=O)Nc1cccc2c1C(=O)c1ccccc1C2=O	inconclusive: 35.5 µM [inhibitor, partial curve]	
O=C(NC(=S)Nc1cccc(F)c1)c1cccc([N+](=O)[O-])c1	active: 1.58 µM	
Cc1ccc(-c2nnn(C(C)C(=O)N3c4ccccc4CCc4ccccc43)n2)cc1 (stereo unspecified)	inconclusive: 12.6 µM [activator, single point]	
O=C(Nc1ccc2nc(-c3ccc(Br)o3)[nH]c2c1)c1ccco1		inactive: 25.4%
CCOc1cccc(C(=O)Nc2ccc(N3CCCC3)cc2)c1	inconclusive: 6.31 µM [activator, full curve, poor fit]	

SMILES	Potency	activity change, negative = inhibition
Cc1ccc(C2CCN(C(=S)NC(C)C)C2)cc1 (stereo unspecified)	inconclusive: 35.5 µM [inhibitor, single point]	
CCN(CC(=O)Nc1ccc2c(c1)OCO2)Cc1nc2ccccc2c(=O)[nH]1	active: 2.51 µM	
C=CCc1cccc(CNc2nc3ccccc3n2C)c1O	inconclusive: 35.5 µM [activator, single point]	
O=C(Cn1nnc2ccccc21)N/N=C\C=C\c1ccccc1	inconclusive: 17.8 µM [inhibitor, single point]	
COc1ccc(C2=NN(C(=O)COc3ncnc4ccccc34)C(c3ccco3)C2)cc1 (stereo unspecified)		inactive: 30.9%
Cc1ccc(-c2cc(N)n(Cc3ccc(Cl)cc3)n2)cc1		inactive: 12.3%
COC(=O)c1nc(-c2ccccc2)n[nH]1	inconclusive: 5.62 µM [activator, single point]	
Cc1cc(/C=C2\SC(=O)N(C)C2=O)c(C)n1-c1cccc(C(=O)O)c1		inactive: 20.7%
COc1cccc(-c2nc(-c3cccs3)no2)c1	active: 12.6 µM	
Oc1ccc(O)c(Cc2nc3ccccc3s2)c1	active: 7.08 µM	
CCn1c(SCC(=O)c2ccc(C)cc2)nnc1-c1ccoc1C	inconclusive: 25.1 µM [inhibitor, single point]	
CN(C)S(=O)(=O)c1cccc(NC(=O)/C=C/c2ccccc2[N+](=O)[O-])c1	inconclusive: 17.8 µM [activator, partial curve]	
CN(C)c1ccc(NC(=O)c2cccc(C(=O)Nc3ccc(N(C)C)cc3)n2)cc1		inactive: -24.5%
CCOC(=O)c1oc2ccccc2c1NC(=O)c1ccc2c(c1)OCO2		inactive: -5.93%
C/C(=N\NC(=O)Cn1nnc2ccccc21)c1ccco1		inactive: 26.8%
COc1cccc(NC(=O)c2ccccc2-c2nc(-c3ccc(F)cc3)no2)c1		inactive: -0.998%
COCCN=c1scc(-c2cc(OC)ccc2OC)n1/N=C/c1c[nH]c2ccccc12	inconclusive: 12.6 µM [activator, partial curve]	
O=c1cc(-c2cccc(Br)c2)oc2cccc(O)c12	inconclusive: 22.4 µM [inhibitor, single point]	
COc1cc(OC)c(C(=O)NNC(=S)NC2CCCCC2)cc1OC	inconclusive: 12.6 µM [inhibitor, single point]	
Cc1csc(=Nc2ccc(S(=O)(=O)N3CCOCC3)cc2)n1Cc1ccco1	inconclusive: 22.4 µM [activator, single point]	
CC(Oc1ccccc1F)C(=O)Nc1ccc2ccccc2c1 (stereo unspecified)		inactive: -20.6%
COc1cc(C(=O)OCCCOC(=O)c2cc(OC)c(OC)c(OC)c2)cc(OC)c1OC		inactive: -13.4%
Cc1cccc(CSC(=N)N)c1	inconclusive: 7.94 µM [inhibitor, single point]	
O=C(CCNc1cccc(F)c1)c1cccc([N+](=O)[O-])c1	inconclusive: 22.4 µM [inhibitor, single point]	
O=C(O)c1cc(-c2ccc3ccccc3n2)nc2ccccc12	active: 5.01 µM	
C=CCN1CCN(C(c2cc(OC)ccc2OC)c2nnnn2CC2CCCO2)CC1 (stereo unspecified)		inactive: -0.0735%

SMILES	Potency	activity change, negative = inhibition
C/C(=N\NC(=O)c1cc(-c2cccnc2)nc2ccccc12)c1ccccc1O	inconclusive: 5.62 µM [inhibitor, single point]	
Cc1ccc(NCc2nnc(SCC(=O)c3ccc4c(c3)OCCO4)o2)c(C)c1	inconclusive: 12.6 µM [activator, single point]	
COc1ccc(-c2ccc(SCC(=O)N3c4ccccc4CC3C)nn2)cc1OC (stereo unspecified)	inconclusive: 12.6 µM [activator, partial curve, poor fit]	
Cc1ccc(C(=O)Nc2ccc(N3CCN(C)CC3)cc2)cc1C	inconclusive: 11.2 µM [inhibitor, partial curve, poor fit]	
COCC(C)N=C1NN=C(c2c[nH]c3ccccc23)CS1 (stereo unspecified)	inconclusive: 25.1 µM [inhibitor, single point]	
COc1ccc(-c2nc3ccccc3[nH]2)cc1	active: 7.94 µM	
COc1ccc(OC)c(/C=N\NC(=O)CSc2nnc(CCCc3ccc(OC)c(C)c3)o2)c1	inconclusive: 20 µM [activator, single point]	
CS(=O)(=O)N(CC(=O)Nc1ccc(S(=O)(=O)N2CCCC2)cc1)c1ccccc1F	inconclusive: 31.6 µM [activator, single point]	
CCN(CC(O)c1cccc(O)c1)C(=O)C12CC3CC(CC(C3)C1)C2 (stereo unspecified)		inactive: -3.38%
Cc1ccc(NC(=S)NCCc2ccccc2)nc1	active: 0.501 µM	
COc1cccc(/C=C2\CCC(C3CCCC3)C2=O)c1 (stereo unspecified)		inactive: 1.43%
O=C(N/N=C/c1cc(O)ccc1[N+](=O)[O-])c1ccc2c(c1)OCCO2	active: 10 µM	
O=C(O)c1ccc(S(=O)(=O)N(Cc2cccs2)CC2CCCO2)cc1 (stereo unspecified)	inconclusive: 0.0056 µM [inhibitor, full curve, poor fit]	
CCCCC1(CCCC)NC(=S)N(Nc2ccc(C)cc2)C1=O	inconclusive: 4.47 µM [inhibitor, full curve, poor fit]	
COc1cc(CN2CCCC(CO)(Cc3ccccc3C)C2)cc2c1OCO2 (stereo unspecified)	inconclusive: 10 µM [activator, single point]	
CC(Oc1ccc(Br)cc1)C(=O)Nc1nc(-c2ccccn2)cs1 (stereo unspecified)	active: 2.51 µM	
CC(C)SC1=NC(C)(C)C=C(/C=C/c2ccc(Cl)cc2Cl)N1	inconclusive: 22.4 µM [inhibitor, single point]	
CC(C(=O)NCc1ccco1)n1nc(-c2ccccc2)c2cc(Cl)ccc21 (stereo unspecified)	inconclusive: 22.4 µM [inhibitor, single point]	
COc1ccc(C(C[N+](=O)[O-])c2c(C)[nH]c3ccccc23)cc1OC (stereo unspecified)		inactive: -27.3%
O=C(Nc1ccccc1)c1cc2ccc3ccccc3c2s1	inconclusive: 1.58 µM [inhibitor, partial curve]	
O=[N+]([O-])c1cccc(/C([O-])=C(/C(=S)Nc2ccccc2F)[n+]2ccccc2)c1	active: 12.6 µM	
COc1cccc(-c2cc(C(=O)N3CCCCCC3)no2)c1	inconclusive: 31.6 µM [inhibitor, single point]	
Cc1scc(C(=O)N/N=C/c2ccsc2)c1C	inconclusive: 15.8 µM [inhibitor, single point]	
O=C(CN1CCN(S(=O)(=O)c2ccc(Cl)s2)CC1)NCc1ccc(Cl)cc1	inconclusive: 15.8 µM [activator, single point]	

Gathered by group: those above containing a COOH group
SMILES	Potency	activity change, negative = inhibition
Cc1cc(/C=C2\SC(=O)N(C)C2=O)c(C)n1-c1cccc(C(=O)O)c1		inactive: 20.7%
O=C(O)c1cc(-c2ccc3ccccc3n2)nc2ccccc12	active: 5.01 µM	
O=C(O)c1ccc(S(=O)(=O)N(Cc2cccs2)CC2CCCO2)cc1 (stereo unspecified)	inconclusive: 0.0056 µM [inhibitor, full curve, poor fit]	

Source: PubChem BioAssay AID2551 (National Center for Advancing Translational Sciences (NCATS), 2010)
